Some of these results come from one statement about several compounds together.
Target: T1, Progesterone Receptor (Homo sapiens, UniProt P06401)
T1 construct: expressed in transfected cells; host or cells: CV-1 cells transduced with PRb-BacMam and MMTV-BacMam reporter
T1 sequence (P06401 1-933): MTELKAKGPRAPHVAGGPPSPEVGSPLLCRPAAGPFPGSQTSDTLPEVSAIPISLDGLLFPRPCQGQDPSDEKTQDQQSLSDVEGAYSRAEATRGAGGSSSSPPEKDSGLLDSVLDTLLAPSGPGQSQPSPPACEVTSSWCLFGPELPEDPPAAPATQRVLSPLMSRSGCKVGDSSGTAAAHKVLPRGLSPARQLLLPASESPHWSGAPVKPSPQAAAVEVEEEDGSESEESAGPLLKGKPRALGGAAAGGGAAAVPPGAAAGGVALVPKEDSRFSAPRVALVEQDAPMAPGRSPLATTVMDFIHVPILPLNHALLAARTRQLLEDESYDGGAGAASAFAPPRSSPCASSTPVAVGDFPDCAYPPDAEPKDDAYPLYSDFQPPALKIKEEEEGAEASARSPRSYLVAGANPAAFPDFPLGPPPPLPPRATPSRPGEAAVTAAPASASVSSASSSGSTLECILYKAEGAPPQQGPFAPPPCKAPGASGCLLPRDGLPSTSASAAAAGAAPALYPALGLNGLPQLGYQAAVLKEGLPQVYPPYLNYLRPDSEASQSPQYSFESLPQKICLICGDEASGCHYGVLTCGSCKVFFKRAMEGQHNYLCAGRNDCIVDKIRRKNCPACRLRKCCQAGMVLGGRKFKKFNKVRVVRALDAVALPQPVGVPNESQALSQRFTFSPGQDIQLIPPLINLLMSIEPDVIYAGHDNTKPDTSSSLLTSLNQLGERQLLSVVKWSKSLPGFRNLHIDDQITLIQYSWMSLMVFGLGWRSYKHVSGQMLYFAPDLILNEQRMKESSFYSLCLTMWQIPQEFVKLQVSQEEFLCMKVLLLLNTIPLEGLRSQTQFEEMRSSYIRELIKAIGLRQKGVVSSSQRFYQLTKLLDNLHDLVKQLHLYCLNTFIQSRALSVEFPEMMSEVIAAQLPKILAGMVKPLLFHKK
Assay: Assay for Progesterone Receptor Activity (CV-1 cells transduced with PRb-BacMam and MMTV-BacMam, Steadylite readout)
Type: cell-based
Conditions: 24 h

Structure (SMILES) | pEC50, progesterone receptor activity
COc1ccc(F)cc1C(C)(C)CC(O)(CNc1cc(C)cc2c1cnn2-c1cccc(C(=O)N[C@H](C(N)=O)[C@@H](C)O)c1)C(F)(F)F (stereo partly drawn) [Example 14, N-[(1S,2R)-1-(Aminocarbonyl)-2-hydroxypropyl]-3-(4-{[4-[5-fluoro-2-(methyloxy)phenyl]-2-hydroxy-4-methyl-2-(trifluoromethyl)pentyl]amino}-6-methyl-1H-indazol-1-yl)benzamide] | < 8
COc1ccc(F)cc1C(C)(C)CC(O)(CNc1cc(C)cc2c1cnn2-c1cccc(C(=O)N2C[C@@H](O)C[C@@H]2C(N)=O)c1)C(F)(F)F (stereo partly drawn) [Example 29, (4S)-1-{[3-(4-{[4-[5-Fluoro-2-(methyloxy)phenyl]-2-hydroxy-4-methyl-2-(trifluoromethyl)pentyl]amino}-6-methyl-1H-indazol-1-yl)phenyl]carbonyl}-4-hydroxy-D-prolinamide] | < 8
COc1ccc(F)cc1C(C)(C)CC(O)(CNc1cc(C)cc2c1cnn2-c1cccc(C(=O)NC2CCCC2)c1)C(F)(F)F (stereo not shown) [Example 4, N-Cyclopentyl-3-(4-{[4-[5-fluoro-2-(methyloxy)phenyl]-2-hydroxy-4-methyl-2-(trifluoromethyl)pentyl]amino}-6-methyl-1H-indazol-1-yl)benzamide] | < 8
COc1ccc(F)cc1C(C)(C)CC(O)(CNc1cc(C)cc2c1cnn2-c1cccc(C(=O)NCCO)c1)C(F)(F)F (stereo not shown) [Example 5, 3-(4-{[4-[5-Fluoro-2-(methyloxy)phenyl]-2-hydroxy-4-methyl-2-(trifluoromethyl)pentyl]amino}-6-methyl-1H-indazol-1-yl)-N-(2-hydroxyethyl)benzamide] | < 8
COc1ccc(F)cc1C(C)(C)CC(O)(CNc1cc(C)cc2c1cnn2-c1cccc(C(=O)N[C@@H]2CCOC2=O)c1)C(F)(F)F (stereo partly drawn) [Example 20, 3-(4-{[4-[5-Fluoro-2-(methyloxy)phenyl]-2-hydroxy-4-methyl-2-(trifluoromethyl)pentyl]amino}-6-methyl-1H-indazol-1-yl)-N-[(3R)-2-oxotetrahydro-3-furanyl]benzamide] | < 8
COc1ccc(F)cc1C(C)(C)CC(O)(CNc1cc(C)cc2c1cnn2-c1cccc(C(=O)NCCC(N)=O)c1)C(F)(F)F (stereo not shown) [Example 12, N-(3-Amino-3-oxopropyl)-3-(4-{[4-[5-fluoro-2-(methyloxy)phenyl]-2-hydroxy-4-methyl-2-(trifluoromethyl)pentyl]amino}-6-methyl-1H-indazol-1-yl)benzamide] | < 8
COc1ccc(F)cc1C(C)(C)CC(O)(CNc1cc(C)cc2c1cnn2-c1cccc(C(=O)NC[C@H](C)O)c1)C(F)(F)F (stereo partly drawn) [Example 6, 3-(4-{[4-[5-Fluoro-2-(methyloxy)phenyl]-2-hydroxy-4-methyl-2-(trifluoromethyl)pentyl]amino}-6-methyl-1H-indazol-1-yl)-N-[(2S)-2-hydroxypropyl]benzamide] | < 8
COc1ccc(F)cc1C(C)(C)CC(O)(CNc1cc(C)cc2c1cnn2-c1cccc(C(N)=O)c1)C(F)(F)F (stereo not shown) [Example 28, 3-(4-{[4-[5-Fluoro-2-(methyloxy)phenyl]-2-hydroxy-4-methyl-2-(trifluoromethyl)pentyl}amino)-6-methyl-1H-indazol-1-yl)benzamide] | < 8
COc1ccc(F)cc1C(C)(C)CC(O)(CNc1cc(C)cc2c1cnn2-c1cccc(C(=O)NCC(C)C)c1)C(F)(F)F (stereo not shown) [Example 2, 3-(4-{[4-[5-Fluoro-2-(methyloxy)phenyl]-2-hydroxy-4-methyl-2-(trifluoromethyl)pentyl]amino}-6-methyl-1H-indazol-1-yl)-N-(2-methylpropyl)benzamide] | < 8
COc1ccc(F)cc1C(C)(C)CC(O)(CNc1cc(C)cc2c1cnn2-c1cccc(C(=O)NCc2ccoc2)c1)C(F)(F)F (stereo not shown) [Example 23, 3-(4-{[4-[5-Fluoro-2-(methyloxy)phenyl]-2-hydroxy-4-methyl-2-(trifluoromethyl)pentyl]amino}-6-methyl-1H-indazol-1-yl)-N-(3-furanylmethyl)benzamide] | < 8
COc1ccc(F)cc1C(C)(C)CC(O)(CNc1cc(C)cc2c1cnn2-c1cccc(C(=O)NC2CNC(=O)C2)c1)C(F)(F)F (stereo not shown) [Example 32, 3-(4-{[4-[5-Fluoro-2-(methyloxy)phenyl]-2-hydroxy-4-methyl-2-(trifluoromethyl)pentyl]amino}-6-methyl-1H-indazol-1-yl)-N-(5-oxo-3-pyrrolidinyl)benzamide] | < 8
CCC(O)CNC(=O)c1cccc(-n2ncc3c(NCC(O)(CC(C)(C)c4cc(F)ccc4OC)C(F)(F)F)cc(C)cc32)c1 (stereo not shown) [Example 8, 3-(4-{[4-[5-Fluoro-2-(methyloxy)phenyl]-2-hydroxy-4-methyl-2-(trifluoromethyl)pentyl]amino}-6-methyl-1H-indazol-1-yl)-N-(2-hydroxybutyl)benzamide] | < 8
COc1ccc(F)cc1C(C)(C)CC(O)(CNc1cc(C)cc2c1cnn2-c1cccc(C(=O)N2C[C@H](O)C[C@@H]2C(N)=O)c1)C(F)(F)F (stereo partly drawn) [Example 30, (4R)-1-{[3-(4-{[4-[5-Fluoro-2-(methyloxy)phenyl]-2-hydroxy-4-methyl-2-(trifluoromethyl)pentyl]amino}-6-methyl-1H-indazol-1-yl)phenyl]carbonyl}-4-hydroxy-D-prolinamide] | < 8
